## Primary screen of a compound library

Source: ChEMBL document CHEMBL3988442, “University of Dundee, Small-Polar-MMV Screening Library” (2021).

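Viability assay of Plasmodium falciparum sporozoites; the read-out is not stated. The concentration is filed as 10 mM, unlikely as a test dose, so the dose is not known. Direction is inferred from retests: higher values go with lower viability. Strong results were mostly tested again. Of about 34,000 compounds tested this way, about 280 (0.84%) reached 50% or more in at least one test.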

Results are given as percent effect. The controls that fix the scale are not given in the record; negative values are as filed. The compounds are a random part of those screened. Two or more numbers in one place are separate tests of the same structure; such repeats can differ widely.

| # | SMILES | effect |
|---|---|---|
| 1 | `O=C(O)C(F)(F)F.O=C(O)C(F)(F)F.[H][C@@]12CCN(c3ncc(F)cn3)C[C@]1([H])O[C@H](C(=O)NCc1cccnc1)C2` | -4.253 |
| 2 | `Cn1nccc1C(=O)N1CCC(c2ncc(Cl)cc2S(C)(=O)=O)CC1` | -1.699 |
| 3 | `c1cc(CCN2CCC(NCc3ccsc3)CC2)ccn1` | 0.355 |
| 4 | `Cc1nc(CNC(=O)NCC(O)c2ccc(F)cc2F)cs1` (stereo not shown) | -2.211 & -4.375 & -19.85 |
| 5 | `COCCN1C(=O)C2(CCN(CC3CC3)CC2)c2ccccc21.O=C(O)C(F)(F)F` | -8.776 |
| 6 | `CO[C@H]1CCN(c2ncccn2)[C@H]1Cc1ccccc1` | -1.527 |
| 7 | `Cc1cccc(CN2CCc3nnc(CN4CCCCC4)n3CC2)n1.O=C(O)C(F)(F)F.O=C(O)C(F)(F)F` | -15.67 |
| 8 | `COCCc1noc(CN2CCCCC2Cn2cncn2)n1` (stereo not shown) | 9.5 |
| 9 | `Cc1nccc(C2CN(S(=O)(=O)N(C)C)C2)n1` | 3.443 |
| 10 | `CC(C)CNC(=O)c1ccc(NC(=O)NC(C)(C)CO)cc1Cl` | -18.77 |
| 11 | `Cc1[nH]nc(CCC(=O)N2CCCC(OCc3cccnc3)C2)c1C` (stereo not shown) | 6.549 |
| 12 | `Cc1ccccc1C(=O)CN1C(=O)c2ccccc2CS1(=O)=O` | -26.94 |
| 13 | `CN(C)C(=O)c1cc(-c2ccncc2)[nH]n1` | -9.337 |
| 14 | `Cc1nc(Nc2nnc(C)s2)cc(C2CCCN2C2CCCC2)n1` (stereo not shown) | 6.757 |
| 15 | `O=C(Nc1ccc(CCN2CCC(O)CC2)cc1)C1CCCOC1` (stereo not shown) | -22.25 |
| 16 | `CC(C)Nc1ncnc2c1CCN(C(=O)CCc1ccccc1)CC2` | -12.49 |
| 17 | `O=C(O)C(F)(F)F.O=C(O)C(F)(F)F.[H][C@@]12CCCO[C@]1([H])[C@H](OCc1ccncc1)CN2Cc1ccoc1` | 13.21 |
| 18 | `Cc1ccc(CNC(=O)NC2CCCN(c3ncccn3)C2)cn1` (stereo not shown) | 3.727 |
| 19 | `CCN1C(=O)CCCC12CCCN(C(=O)c1ccncc1F)C2.O=C(O)C(F)(F)F` (stereo not shown) | -5.051 |
| 20 | `c1ccc(-c2nnc(N3CCCC4(CCOC4)C3)s2)cc1` (stereo not shown) | 67.59 & 93.8 & 88.49 |
| 21 | `CCOC(=O)c1ccc(CNC(=O)c2ccon2)o1` | 2.743 |
| 22 | `Cn1cc(CN2CCc3ccc(=O)n(Cc4ccncc4)c3CC2)cn1.O=C(O)C(F)(F)F.O=C(O)C(F)(F)F` | 2.997 |
| 23 | `[H][C@@]12COC[C@]1(c1nc(C)no1)CN(C(=O)COCC)C2` | -29.68 & -33.92 & 13.66 |
| 24 | `O=C(NCCOc1ccc(Cl)cc1)N1CCS(=O)(=O)CC1` | 5.314 |
| 25 | `Cc1ccccc1-c1cncc(C2CCN(C(=O)CN(C)C)CC2)n1` | 2.962 |
| 26 | `CCn1ccnc1CN1CCCN(C(=O)c2cccc(C#N)c2)CC1` | 1.288 |
| 27 | `Cc1noc(C)c1C(=O)NCC(c1ccc(F)cc1)N(C)C` (stereo not shown) | -2.089 & -5.579 & 2.359 |
| 28 | `O=C(CCOCc1ccccc1)N1CCCC1c1noc(C2CC2)n1` (stereo not shown) | 4.16 |
| 29 | `CCNC(=O)c1nnc2ccc(N3CCOCC3)cc2n1` | -3.728 |
| 30 | `Cc1cccc(-c2nnn3c2COC(CNC(=O)N2CCCC2)C3)c1` (stereo not shown) | 16.95 |
| 31 | `O=C(O)C(F)(F)F.[H][C@@]12CCCO[C@]1([H])[C@@H](Oc1ccccn1)CN2C(=O)c1ccoc1C` | 7.031 |
| 32 | `COCC(=O)NCCn1ccc2c(OC)cccc21` | 0.8772 |
| 33 | `O=C(c1n[nH]c(=O)c2ccccc12)N1CCC(O)(CN2CCOCC2)C1` (stereo not shown) | 0.7033 |
| 34 | `CCn1cnnc1CCNC(=O)C(C)(C)c1cccc(Cl)c1` | -7.23 |
| 35 | `COc1ccc(CC(=O)N2CCC(Nc3ccc(C)nn3)CC2)cc1` | 6.515 |
| 36 | `Cc1noc(CCCC(=O)NC(C)c2ccc(Cl)s2)n1` (stereo not shown) | 4.932 |
| 37 | `COc1cc(CNc2cc(N3CCCC3CO)ncn2)ccn1` (stereo not shown) | 8.86 |
| 38 | `CC(=O)NCC1CCN(C(=O)c2csc(-c3ccc(C)cc3C)n2)CC1` | -1.754 |
| 39 | `CCOc1cc(C)nc(N2CCN(C(=O)c3cnc[nH]3)CC2)n1` | 8.611 |
| 40 | `CCC(=O)Nc1ccccc1Sc1nc(Br)nn1C` | -4.029 |
| 41 | `CC(NC(=O)NCCS(C)(=O)=O)c1ccc2c(c1)CCC(=O)N2` (stereo not shown) | 5.621 & 37.27 & 16.3 |
| 42 | `Cc1cc(C)n(CC(=O)NC(Cc2ccsc2)c2ccccn2)c(=O)n1.Cl` (stereo not shown) | -8.175 |
| 43 | `Cn1cc(C(=O)NCc2cn3c(n2)CN(CC2CCOCC2)CC3)cn1.O=C(O)C(F)(F)F` | -4.735 |
| 44 | `CC(C(=O)NCC1(c2cccc(Br)c2)CCC1)S(C)(=O)=O` (stereo not shown) | -14.17 |
| 45 | `O=S1(=O)N=C(SCc2ccc(Cl)cc2)Nc2ccc(F)cc21` | -5.922 |
| 46 | `O=C(Nc1cc(Cl)ccn1)c1nc(N2CCCC2)ncc1Cl` | 7.456 |
| 47 | `O=C1CC(c2ccccc2)C2(CCN(C(=O)c3cnccn3)CC2)N1` (stereo not shown) | 3.535 |
| 48 | `CC(C)Cc1cc(C(=O)NCCN2CCCS2(=O)=O)[nH]n1` | 8.031 |
| 49 | `FC(F)(F)Cc1noc(CN2CCCC2c2noc(C3CC3)n2)n1` (stereo not shown) | 17.76 |
| 50 | `CC(C)(C)c1ccc(C(=O)C2CCCN(C(=O)CNS(C)(=O)=O)C2)cc1` (stereo not shown) | -6.315 |
| 51 | `CN1CC(=O)N(c2ccccc2)CC12CCN(CC1CCOCC1)C2.O=C(O)C(F)(F)F.O=C(O)C(F)(F)F` (stereo not shown) | -12.75 |
| 52 | `Cn1cccc1C(=O)N1CCc2ncnc(N3CCOCC3)c2CC1` | 6.51 |
| 53 | `Cc1cccc(C(=O)NCc2ccccc2)n1` | -0.5856 |
| 54 | `[H][C@@]12CN(S(=O)(=O)CCC)C[C@]1([H])N(CCc1cccc(Cl)c1)C(=O)O2` | 5.579 |
| 55 | `O=C(Cc1cccc(F)c1)NCCNCc1ccco1` | -6.868 |
| 56 | `Cl.NCC1CCC(c2c(C(=O)NCCO)sc3ccccc23)CC1` (stereo not shown) | 3.389 |
| 57 | `CCOC(=O)CCCNC(=O)CN1CCN(c2ncccn2)CC1` | 5.016 |
| 58 | `CCn1ccnc1CN1CCOC(CNc2cccnn2)C1` (stereo not shown) | 3.925 |
| 59 | `COc1ccc(NC(=O)N(C)Cc2ccsc2)cn1` | 2.793 |

For reference, 7 entries once more:

SMILES,effect
O=C(NCCOc1ccc(Cl)cc1)N1CCS(=O)(=O)CC1,5.314
CCNC(=O)c1nnc2ccc(N3CCOCC3)cc2n1,-3.728
CC(NC(=O)NCCS(C)(=O)=O)c1ccc2c(c1)CCC(=O)N2 (stereo not shown),5.621 & 37.27 & 16.3
Cc1cc(C)n(CC(=O)NC(Cc2ccsc2)c2ccccn2)c(=O)n1.Cl (stereo not shown),-8.175
CCn1ccnc1CN1CCCN(C(=O)c2cccc(C#N)c2)CC1,1.288
Cc1nc(Nc2nnc(C)s2)cc(C2CCCN2C2CCCC2)n1 (stereo not shown),6.757
Cc1[nH]nc(CCC(=O)N2CCCC(OCc3cccnc3)C2)c1C (stereo not shown),6.549